The text below walks through data of article doi:10.1101/2025.04.25.650293.

Assay [1] concerns the target T1, PDHX (human (endogenous in 143B)) (UniProt O00330).
T1 sequence: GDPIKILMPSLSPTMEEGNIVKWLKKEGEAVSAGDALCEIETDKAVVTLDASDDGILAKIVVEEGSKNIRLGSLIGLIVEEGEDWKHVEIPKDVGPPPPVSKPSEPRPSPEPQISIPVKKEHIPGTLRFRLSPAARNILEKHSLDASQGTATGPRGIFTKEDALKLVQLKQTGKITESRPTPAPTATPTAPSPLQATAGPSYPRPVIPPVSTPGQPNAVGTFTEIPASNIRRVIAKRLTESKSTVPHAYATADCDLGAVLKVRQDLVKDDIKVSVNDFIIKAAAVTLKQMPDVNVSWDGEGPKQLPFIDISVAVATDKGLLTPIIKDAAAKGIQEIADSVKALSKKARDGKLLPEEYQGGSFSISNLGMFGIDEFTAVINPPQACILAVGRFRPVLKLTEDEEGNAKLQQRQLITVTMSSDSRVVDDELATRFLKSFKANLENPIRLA
Kind of assay: co-IP.

Assay [2] concerns the target T2, DLAT (dihydrolipoamide S-acetyltransferase, the PDC E2 subunit) (human (endogenous in 143B)) (UniProt P10515).
T2 sequence: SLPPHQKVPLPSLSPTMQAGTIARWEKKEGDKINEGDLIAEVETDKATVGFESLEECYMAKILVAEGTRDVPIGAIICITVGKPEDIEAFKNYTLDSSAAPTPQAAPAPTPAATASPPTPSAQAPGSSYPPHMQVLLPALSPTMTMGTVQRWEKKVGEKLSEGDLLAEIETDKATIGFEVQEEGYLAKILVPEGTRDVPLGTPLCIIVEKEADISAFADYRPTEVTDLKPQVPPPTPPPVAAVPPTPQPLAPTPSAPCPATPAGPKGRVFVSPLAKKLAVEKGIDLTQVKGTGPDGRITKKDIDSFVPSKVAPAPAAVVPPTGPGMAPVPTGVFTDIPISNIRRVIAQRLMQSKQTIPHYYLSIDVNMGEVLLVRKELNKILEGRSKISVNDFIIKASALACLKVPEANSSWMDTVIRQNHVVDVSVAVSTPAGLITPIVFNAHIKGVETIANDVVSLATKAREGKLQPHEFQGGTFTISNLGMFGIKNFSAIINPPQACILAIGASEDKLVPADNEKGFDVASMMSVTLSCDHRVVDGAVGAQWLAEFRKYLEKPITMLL
Kind of assay: co-IP.

These are yes or no findings as the source states them, for the method shown. Binding seen in cells or lysates may run through a third protein. A result given as binding can be weak or reduced; the word gives no strength.

As to “HA-ELMSAN1 1-330aa truncation (domain or fragment)”, the binding result in assay [1] and in assay [2] was “no binding” in each case.
Take “HA-ELMSAN1 1-720aa truncation (domain or fragment)”: the binding entry in assay [1] and in assay [2] was “no binding” in each case.
For the substance “HA-ELMSAN1 1-879aa truncation (domain or fragment)”, the binding entry in assay [1] and in assay [2] was “binds” each time.
For the substance “HA-tagged full-length (1-1099aa) ELMSAN1”, the binding entry in assay [1] and in assay [2] was “binds” throughout.
